Results reported in the RNAGym collection of RNA variant scans (doi:10.1126/science.aae0568).
Variants at the floor of the assay are shown more often than the library holds them.

B1: tRNA (parent)
chain: GUUCCGUUGGCGUAAUGGUAACGCGUCUCCCUCCUAAGGAGAAGACUGCGGGUUCGAGUCCCGUACGGAACG

Variants of: B1
Assay: yeast fitness relative to wild type (ratio to wild type); higher = fitter; tRNA-Arg(CCU), competitive growth, 37 C, YPD
Summary of the method: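 Genotype frequency changes were the basis for Darwinian fitness relative to wild type. The frequencies came from 100-nucleotide paired-end sequencing of gene amplicons from the start population and each end population of pooled yeast strains with tRNA-Arg(CCU) gene variants at the native locus. Competition ran in YPD at 37°C for 24 hours in six replicates, genotypes needed ≥ 100 starting reads, and estimates < 0.5 were set to 0.5.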

| Variant | yeast fitness |
| --- | --- |
| U2A A20C A37G G52A U53A | ≤ 0.5 |
| U2A A20G C49U G63C A69U | ≤ 0.5 |
| U2A A20U C34A C61U | ≤ 0.5 |
| U2A A43G U64A | ≤ 0.5 |
| U2A C4A A42G C46U | ≤ 0.5 |
| U2A C4A U13C C31A C49G A57G | ≤ 0.5 |
| U2A C5A C30A A42C A43G G56A A57U | ≤ 0.5 |
| U2A C5G A14G C30G | ≤ 0.5 |
| U2A C5G C66U A70U | ≤ 0.5 |
| U2A C5U A69C | 0.687 |
| U2A C11G A36G G39C | ≤ 0.5 |
| U2A C11G A37U C49G C60G | ≤ 0.5 |
| U2A C11G U13A G41A | ≤ 0.5 |
| U2A C24U G56C A65G A70U | ≤ 0.5 |
| U2A C27G U53G A70G | ≤ 0.5 |
| U2A G6C C49U | ≤ 0.5 |
| U2A G10A A20U C22G G44C C61G | 0.502 |
| U2A G12A A21C C29U A57C | ≤ 0.5 |
| U2A G12A G23A C29G | ≤ 0.5 |
| U2A G18A G38C U64G A70C | ≤ 0.5 |
| U2A G25A G68A | 0.64 |
| U2A U3G G18A A20C C49U | ≤ 0.5 |
| U2A U8A A69U | ≤ 0.5 |
| U2A U13G A40C G41C A57G G63C A65U | ≤ 0.5 |

| Variant | yeast fitness |
| --- | --- |
| U2A U13G A40C G41C C60G C66G A69G | ≤ 0.5 |
| U2A U16C C30A A65U | ≤ 0.5 |
| U2A U19A A20C U26A U64C | ≤ 0.5 |
| U2C A14G A57U C62U | ≤ 0.5 |
| U2C A15C A36U A65C | ≤ 0.5 |
| U2C A15G G38C U64A G68A A69C | ≤ 0.5 |
| U2C A40C C66A | ≤ 0.5 |
| U2C A43U G44C | ≤ 0.5 |
| U2C A65G G68A A69C | 0.563 |
| U2C C4U A37C C60G A65U | ≤ 0.5 |
| U2C C4U G10C U47A A57C A70C | ≤ 0.5 |
| U2C C4U G10C U64C | ≤ 0.5 |
| U2C C5A A57G C66G | ≤ 0.5 |
| U2C C5A C29G G48A A69U | ≤ 0.5 |
| U2C C5G C29G G41C A57U | ≤ 0.5 |
| U2C C5U A43U C49U | ≤ 0.5 |
| U2C C11A G41C C61A | ≤ 0.5 |
| U2C C11G U26C A36U C55G A57C A65C | ≤ 0.5 |
| U2C C22G G51C A70G | ≤ 0.5 |
| U2C C24U C29U C30A G68C A69U | ≤ 0.5 |
| U2C C27A U59A | ≤ 0.5 |
| U2C C29A C34A G56A | ≤ 0.5 |
| U2C C29U | 0.81 |
| U2C C30G U59A A70U | ≤ 0.5 |

| Variant | yeast fitness |
| --- | --- |
| U2C C49U C60G | ≤ 0.5 |
| U2C G6C A21C C66U | ≤ 0.5 |
| U2C G9A C30G C55A | ≤ 0.5 |
| U2C G56C | 0.727 |
| U2C U3C A57C G67U | ≤ 0.5 |
| U2C U3C U13C A14U C46U G50C | ≤ 0.5 |
| U2C U8G A14U G51C A70G | ≤ 0.5 |
| U2C U13A G39C | ≤ 0.5 |
| U2C U13C G23C C55G | ≤ 0.5 |
| U2C U47C G67C | 0.719 |
| U2G A20G C33U G39A | ≤ 0.5 |
| U2G A21C C61G G68A | ≤ 0.5 |
| U2G A37C G41A C49U C60G G68U | ≤ 0.5 |
| U2G A42U C55U C62G A70C | ≤ 0.5 |
| U2G A57C A70C | ≤ 0.5 |
| U2G C4U A37G C61A C62U A65U A69C | ≤ 0.5 |
| U2G C5G C11G | ≤ 0.5 |
| U2G C11U A15U | ≤ 0.5 |
| U2G C11U A21U | ≤ 0.5 |
| U2G C22U C24G U35C C49U C61G | ≤ 0.5 |
| U2G C24A C29U G67U | ≤ 0.5 |
| U2G C24G C29G C31G U64C | ≤ 0.5 |
| U2G C27U A42U C46G | ≤ 0.5 |
| U2G C31G A36G U59A | ≤ 0.5 |

| Variant | yeast fitness |
| --- | --- |
| U2G C31U U53A C60G G67A A70C | ≤ 0.5 |
| U2G C33U A36U A43C A65U G68U | ≤ 0.5 |
| U2G C49G A69C | ≤ 0.5 |
| U2G C60A A65C | ≤ 0.5 |
| U2G G6A C27U G63A A65G | ≤ 0.5 |
| U2G G6A G23A C29G G51C | ≤ 0.5 |
| U2G G9C G12A U32C A42C C46A A65U | ≤ 0.5 |
| U2G G10C A42U A45U C49G | ≤ 0.5 |
| U2G G10C C61U | ≤ 0.5 |
| U2G G12A A14G | 0.561 |
| U2G G12A U13A G25C U28A C33A | ≤ 0.5 |
| U2G G12C C49U | ≤ 0.5 |
| U2G U3A C5U U7C U8C A20C U35C A37U A57C | ≤ 0.5 |
| U2G U7C C29G C60A | ≤ 0.5 |
| U2G U16G C27A A36C G51A A57U | ≤ 0.5 |
| U2G U19A A21G A65U G67C | 0.543 |
| U2G U26C C46G | ≤ 0.5 |
| U2G U28A C62G | ≤ 0.5 |
| U2G U54C C66U | ≤ 0.5 |
| U3A A20G G56C | ≤ 0.5 |
| U3A A20U G50A C60G | ≤ 0.5 |
| U3A A36C G51C G67U | ≤ 0.5 |
| U3A C4G U8A C24G C61A | ≤ 0.5 |
| U3A C4G U8A C49G | ≤ 0.5 |

| Variant | yeast fitness |
| --- | --- |
| U3A C4U U7A C24U A69U | ≤ 0.5 |
| U3A C4U U7A C24U C31A A40C G52A C61A | ≤ 0.5 |
| U3A C4U U32C U64C | 0.877 |
| U3A C5G U13G G39C A70C | ≤ 0.5 |
| U3A C5U C22G C34G A37G A65G | ≤ 0.5 |
| U3A C5U C31G A57G | ≤ 0.5 |
| U3A C11G G12A C22U G39A A65G | ≤ 0.5 |
| U3A C11U U13C C31A C46A A57C | ≤ 0.5 |
| U3A C27G A43G | ≤ 0.5 |
| U3A C27U C30G | ≤ 0.5 |
| U3A C29G C60G G68A | ≤ 0.5 |
| U3A C30G C33U G67U | ≤ 0.5 |
| U3A C30U G67A | 0.553 |
| U3A C34U A45G U53A | ≤ 0.5 |
| U3A G6A A42C | ≤ 0.5 |
| U3A G12A U19A U64C | ≤ 0.5 |
| U3A G25A A43U G56A G68C | ≤ 0.5 |
| U3A G25C U47A | 0.547 |
| U3A G50C G56A | ≤ 0.5 |
| U3A U7A A15U C29G A45U C60G | ≤ 0.5 |
| U3A U8G C27G | ≤ 0.5 |
| U3A U13C G68A | 0.528 |
| U3A U32C A37C C46U | ≤ 0.5 |
| U3A U35A C49U | ≤ 0.5 |

| Variant | yeast fitness |
| --- | --- |
| U3A U59A A70G | ≤ 0.5 |
| U3C A15C A36C U47A C62G | ≤ 0.5 |
| U3C A15G C29A A40U C55G C61G | ≤ 0.5 |
| U3C A20G C33U A40G C62G A70U | ≤ 0.5 |
| U3C A21G C29G | ≤ 0.5 |
| U3C A21G G23A C31U G63C U64A C66G | ≤ 0.5 |
| U3C A40G C49G U59G G67C | ≤ 0.5 |
| U3C A43C | 1.04 |
| U3C A57G C60A C66G | ≤ 0.5 |
| U3C C4G G6A U8G A37U | ≤ 0.5 |
| U3C C4U A14U | ≤ 0.5 |
| U3C C4U A15G U26A U32A | 0.571 |
| U3C C4U A15G U26A U32A C62U G67C | 0.613 |
| U3C C11A C31G G68C | ≤ 0.5 |
| U3C C11G G51C G52A U59G | ≤ 0.5 |
| U3C C24G C31A A43U A65C A70G | ≤ 0.5 |
| U3C C27U C62U | 0.617 |
| U3C C27U G50A | 0.648 |
| U3C C30G G63C | ≤ 0.5 |
| U3C C31G U32C C33U G38C C46G G48C | ≤ 0.5 |
| U3C C31U A36C A43C G50C A70U | ≤ 0.5 |
| U3C C55A | 0.687 |
| U3C C62A | 0.865 |
| U3C G9A A21G A40G U64C | ≤ 0.5 |

| Variant | yeast fitness |
| --- | --- |
| U3C G9A C11A C30G C46U | ≤ 0.5 |
| U3C G9A G18C U19G C27U A43U G67U | ≤ 0.5 |
| U3C G41A G52C C61U C62U | ≤ 0.5 |
| U3C G56A A69C | 0.802 |
| U3C U7C A37U C60G | ≤ 0.5 |
| U3C U8G A42C | ≤ 0.5 |
| U3C U8G C24G U28G C29G U35G U47A | ≤ 0.5 |
| U3C U8G U32A C33G U53A | ≤ 0.5 |
| U3C U16A C30A C33A A36G | ≤ 0.5 |
| U3C U16G C30U C33U U47C G56A | ≤ 0.5 |
| U3C U47A U53C | ≤ 0.5 |
| U3G A14U U19A | ≤ 0.5 |
| U3G A15U C61A | ≤ 0.5 |
| U3G A42G G44C | ≤ 0.5 |
| U3G C5A C46A | ≤ 0.5 |
| U3G C5G A20C G63C | ≤ 0.5 |
| U3G C5G U19C C55G | ≤ 0.5 |
| U3G C11U A14G C62A | ≤ 0.5 |
| U3G C11U C62G | ≤ 0.5 |
| U3G C24U C27G C30A | ≤ 0.5 |
| U3G C31A G41A | ≤ 0.5 |
| U3G U8C G9U C30U G58C G63C | ≤ 0.5 |
| U3G U13G A14C G39C G41A | ≤ 0.5 |
